In the supplement of paper PMC10849652:
This is one part of the list.

Chains of the proteins cited; added tags and fusions are not shown. Lines headed by an entry give the natural chain unless they say otherwise; changes in a name come on top.
UniProt Q9UPY3: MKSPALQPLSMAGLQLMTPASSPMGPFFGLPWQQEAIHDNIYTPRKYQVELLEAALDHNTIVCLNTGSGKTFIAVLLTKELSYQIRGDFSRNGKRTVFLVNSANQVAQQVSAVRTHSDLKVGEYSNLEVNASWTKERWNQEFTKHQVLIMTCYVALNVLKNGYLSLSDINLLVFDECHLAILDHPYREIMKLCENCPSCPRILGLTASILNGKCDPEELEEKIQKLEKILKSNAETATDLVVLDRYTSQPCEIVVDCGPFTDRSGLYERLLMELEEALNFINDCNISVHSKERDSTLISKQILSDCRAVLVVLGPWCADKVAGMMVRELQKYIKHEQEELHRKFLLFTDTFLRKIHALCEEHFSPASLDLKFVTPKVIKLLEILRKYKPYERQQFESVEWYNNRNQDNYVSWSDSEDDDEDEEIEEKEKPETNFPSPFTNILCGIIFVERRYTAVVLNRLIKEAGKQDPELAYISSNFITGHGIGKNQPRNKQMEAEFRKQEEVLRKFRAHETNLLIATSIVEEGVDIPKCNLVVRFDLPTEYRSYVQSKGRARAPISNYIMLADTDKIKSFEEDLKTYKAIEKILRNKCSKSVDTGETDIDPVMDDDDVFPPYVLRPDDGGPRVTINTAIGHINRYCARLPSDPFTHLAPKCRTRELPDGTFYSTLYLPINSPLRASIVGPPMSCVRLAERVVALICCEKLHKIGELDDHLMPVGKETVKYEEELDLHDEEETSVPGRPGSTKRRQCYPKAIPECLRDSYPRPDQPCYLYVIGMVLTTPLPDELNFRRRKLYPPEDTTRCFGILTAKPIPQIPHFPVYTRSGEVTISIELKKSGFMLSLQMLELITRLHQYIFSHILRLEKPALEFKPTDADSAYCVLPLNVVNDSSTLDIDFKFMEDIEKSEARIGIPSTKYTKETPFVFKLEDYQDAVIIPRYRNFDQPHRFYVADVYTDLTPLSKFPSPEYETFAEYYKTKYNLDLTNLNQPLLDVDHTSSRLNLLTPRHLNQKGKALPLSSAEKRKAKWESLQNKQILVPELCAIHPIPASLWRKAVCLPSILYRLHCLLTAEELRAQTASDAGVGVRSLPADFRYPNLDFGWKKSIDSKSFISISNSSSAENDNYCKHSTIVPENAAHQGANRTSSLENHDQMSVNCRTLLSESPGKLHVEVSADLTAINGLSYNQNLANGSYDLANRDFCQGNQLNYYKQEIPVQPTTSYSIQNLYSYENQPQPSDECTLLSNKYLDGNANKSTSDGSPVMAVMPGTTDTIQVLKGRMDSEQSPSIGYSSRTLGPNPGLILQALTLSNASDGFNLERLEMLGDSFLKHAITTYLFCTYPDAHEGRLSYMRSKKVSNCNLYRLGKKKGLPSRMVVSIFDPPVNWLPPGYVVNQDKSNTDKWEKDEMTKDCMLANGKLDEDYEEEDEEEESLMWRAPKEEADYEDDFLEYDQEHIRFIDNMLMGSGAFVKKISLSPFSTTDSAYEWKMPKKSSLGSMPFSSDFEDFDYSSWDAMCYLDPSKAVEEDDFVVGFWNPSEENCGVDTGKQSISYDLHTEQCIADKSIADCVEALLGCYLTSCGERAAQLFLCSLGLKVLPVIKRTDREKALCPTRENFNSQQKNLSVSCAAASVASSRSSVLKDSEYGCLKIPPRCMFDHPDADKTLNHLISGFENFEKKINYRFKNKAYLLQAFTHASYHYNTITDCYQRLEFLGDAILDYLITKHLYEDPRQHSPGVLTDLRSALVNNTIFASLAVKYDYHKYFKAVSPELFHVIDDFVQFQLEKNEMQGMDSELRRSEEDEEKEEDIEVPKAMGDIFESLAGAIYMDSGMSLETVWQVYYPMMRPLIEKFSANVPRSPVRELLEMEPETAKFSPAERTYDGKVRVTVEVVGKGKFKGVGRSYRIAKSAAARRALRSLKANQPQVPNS
UniProt Q8WYQ5: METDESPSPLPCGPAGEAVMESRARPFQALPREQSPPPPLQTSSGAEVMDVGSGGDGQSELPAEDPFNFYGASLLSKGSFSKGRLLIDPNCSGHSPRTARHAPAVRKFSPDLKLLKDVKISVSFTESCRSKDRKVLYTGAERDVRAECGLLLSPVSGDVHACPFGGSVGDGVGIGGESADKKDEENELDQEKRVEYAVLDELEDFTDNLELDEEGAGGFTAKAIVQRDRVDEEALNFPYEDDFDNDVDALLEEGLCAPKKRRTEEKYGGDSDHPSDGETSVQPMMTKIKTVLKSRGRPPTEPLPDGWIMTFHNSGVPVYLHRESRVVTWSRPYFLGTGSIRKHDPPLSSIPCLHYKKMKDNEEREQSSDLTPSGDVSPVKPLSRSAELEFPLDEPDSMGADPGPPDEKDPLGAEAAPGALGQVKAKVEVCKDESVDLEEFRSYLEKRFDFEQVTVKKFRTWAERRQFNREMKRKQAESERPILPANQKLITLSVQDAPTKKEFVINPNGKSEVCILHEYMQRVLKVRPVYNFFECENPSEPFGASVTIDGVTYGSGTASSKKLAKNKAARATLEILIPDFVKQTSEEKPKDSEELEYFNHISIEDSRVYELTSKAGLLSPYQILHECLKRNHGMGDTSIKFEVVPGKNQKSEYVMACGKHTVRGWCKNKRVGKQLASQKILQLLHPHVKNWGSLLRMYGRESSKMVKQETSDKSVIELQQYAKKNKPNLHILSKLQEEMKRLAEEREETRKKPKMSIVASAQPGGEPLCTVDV
UniProt O60832: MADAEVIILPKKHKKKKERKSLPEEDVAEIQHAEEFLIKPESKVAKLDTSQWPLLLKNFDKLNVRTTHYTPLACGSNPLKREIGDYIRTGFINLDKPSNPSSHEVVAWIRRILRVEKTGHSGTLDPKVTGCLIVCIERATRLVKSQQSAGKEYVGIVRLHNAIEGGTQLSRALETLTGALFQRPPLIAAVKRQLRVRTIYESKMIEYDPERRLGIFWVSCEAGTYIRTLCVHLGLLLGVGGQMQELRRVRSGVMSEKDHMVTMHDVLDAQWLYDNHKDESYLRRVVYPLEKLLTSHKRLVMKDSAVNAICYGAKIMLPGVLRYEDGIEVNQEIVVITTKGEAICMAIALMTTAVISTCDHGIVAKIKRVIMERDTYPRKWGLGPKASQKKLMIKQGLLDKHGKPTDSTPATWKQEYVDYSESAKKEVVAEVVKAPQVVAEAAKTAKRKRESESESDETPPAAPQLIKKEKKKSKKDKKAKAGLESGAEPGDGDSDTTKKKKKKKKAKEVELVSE
UniProt Q99543: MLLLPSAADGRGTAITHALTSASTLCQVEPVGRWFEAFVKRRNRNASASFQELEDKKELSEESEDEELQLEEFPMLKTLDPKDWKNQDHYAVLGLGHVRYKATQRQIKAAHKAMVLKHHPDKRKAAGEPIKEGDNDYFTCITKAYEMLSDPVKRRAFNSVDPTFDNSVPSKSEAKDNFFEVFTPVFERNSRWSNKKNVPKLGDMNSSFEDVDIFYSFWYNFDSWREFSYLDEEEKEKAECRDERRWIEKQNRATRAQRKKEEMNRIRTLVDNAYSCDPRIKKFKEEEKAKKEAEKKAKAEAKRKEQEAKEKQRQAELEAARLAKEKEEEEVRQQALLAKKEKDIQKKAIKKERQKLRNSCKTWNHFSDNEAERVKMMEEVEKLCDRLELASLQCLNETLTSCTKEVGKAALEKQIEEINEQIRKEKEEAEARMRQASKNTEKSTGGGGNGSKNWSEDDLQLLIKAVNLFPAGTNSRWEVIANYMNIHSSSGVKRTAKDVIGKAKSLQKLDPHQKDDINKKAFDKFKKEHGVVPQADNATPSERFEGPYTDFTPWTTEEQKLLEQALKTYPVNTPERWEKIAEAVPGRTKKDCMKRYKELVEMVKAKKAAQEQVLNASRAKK
UniProt Q86SQ9: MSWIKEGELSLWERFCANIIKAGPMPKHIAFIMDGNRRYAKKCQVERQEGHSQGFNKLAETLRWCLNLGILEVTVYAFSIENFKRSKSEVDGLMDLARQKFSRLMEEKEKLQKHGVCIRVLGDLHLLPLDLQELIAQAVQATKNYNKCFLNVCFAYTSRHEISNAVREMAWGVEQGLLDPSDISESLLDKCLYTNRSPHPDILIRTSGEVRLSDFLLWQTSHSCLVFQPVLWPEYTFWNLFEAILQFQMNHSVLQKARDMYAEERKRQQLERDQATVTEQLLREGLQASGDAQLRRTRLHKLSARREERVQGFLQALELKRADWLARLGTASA
UniProt Q13268: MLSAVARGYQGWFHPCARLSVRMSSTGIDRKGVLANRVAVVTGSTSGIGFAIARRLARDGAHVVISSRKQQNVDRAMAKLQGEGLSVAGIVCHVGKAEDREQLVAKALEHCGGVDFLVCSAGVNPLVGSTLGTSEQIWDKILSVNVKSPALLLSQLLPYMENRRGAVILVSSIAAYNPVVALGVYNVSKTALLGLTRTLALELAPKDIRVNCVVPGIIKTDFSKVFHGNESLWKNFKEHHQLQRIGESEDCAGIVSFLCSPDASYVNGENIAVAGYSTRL
UniProt O60231: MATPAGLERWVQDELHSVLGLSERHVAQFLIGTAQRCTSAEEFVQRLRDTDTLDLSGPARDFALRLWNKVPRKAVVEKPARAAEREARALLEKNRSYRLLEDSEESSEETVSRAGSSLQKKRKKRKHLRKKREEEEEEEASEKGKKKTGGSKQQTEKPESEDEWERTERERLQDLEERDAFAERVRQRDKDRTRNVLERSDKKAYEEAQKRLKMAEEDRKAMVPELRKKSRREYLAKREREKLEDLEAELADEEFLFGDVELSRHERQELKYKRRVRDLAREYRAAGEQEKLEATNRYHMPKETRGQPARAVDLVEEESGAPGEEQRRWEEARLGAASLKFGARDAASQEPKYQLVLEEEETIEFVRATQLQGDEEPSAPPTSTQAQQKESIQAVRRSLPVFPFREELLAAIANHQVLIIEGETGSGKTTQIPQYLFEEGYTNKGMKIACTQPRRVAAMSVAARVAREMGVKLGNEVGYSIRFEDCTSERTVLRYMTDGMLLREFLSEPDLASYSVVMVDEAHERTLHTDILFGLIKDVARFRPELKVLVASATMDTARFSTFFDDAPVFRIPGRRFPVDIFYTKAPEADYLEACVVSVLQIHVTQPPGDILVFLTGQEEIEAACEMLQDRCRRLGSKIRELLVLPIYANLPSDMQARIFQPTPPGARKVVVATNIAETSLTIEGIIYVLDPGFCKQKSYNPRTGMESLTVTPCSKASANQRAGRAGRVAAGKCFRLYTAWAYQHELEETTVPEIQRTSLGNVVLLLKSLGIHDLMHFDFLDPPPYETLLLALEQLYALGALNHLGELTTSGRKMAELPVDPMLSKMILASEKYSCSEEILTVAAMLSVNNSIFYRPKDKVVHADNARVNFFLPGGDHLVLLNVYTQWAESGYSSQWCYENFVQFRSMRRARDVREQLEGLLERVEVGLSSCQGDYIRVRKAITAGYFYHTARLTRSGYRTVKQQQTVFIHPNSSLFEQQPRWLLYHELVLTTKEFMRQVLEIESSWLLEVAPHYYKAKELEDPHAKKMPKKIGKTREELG
UniProt Q16854: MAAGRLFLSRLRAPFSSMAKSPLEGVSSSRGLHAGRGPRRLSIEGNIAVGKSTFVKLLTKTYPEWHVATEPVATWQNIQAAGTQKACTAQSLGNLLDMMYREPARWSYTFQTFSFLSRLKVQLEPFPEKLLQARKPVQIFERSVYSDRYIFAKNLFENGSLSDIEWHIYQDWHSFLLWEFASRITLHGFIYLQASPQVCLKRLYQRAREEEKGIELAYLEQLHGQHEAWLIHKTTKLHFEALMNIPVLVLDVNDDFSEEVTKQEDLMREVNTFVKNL
UniProt Q02127: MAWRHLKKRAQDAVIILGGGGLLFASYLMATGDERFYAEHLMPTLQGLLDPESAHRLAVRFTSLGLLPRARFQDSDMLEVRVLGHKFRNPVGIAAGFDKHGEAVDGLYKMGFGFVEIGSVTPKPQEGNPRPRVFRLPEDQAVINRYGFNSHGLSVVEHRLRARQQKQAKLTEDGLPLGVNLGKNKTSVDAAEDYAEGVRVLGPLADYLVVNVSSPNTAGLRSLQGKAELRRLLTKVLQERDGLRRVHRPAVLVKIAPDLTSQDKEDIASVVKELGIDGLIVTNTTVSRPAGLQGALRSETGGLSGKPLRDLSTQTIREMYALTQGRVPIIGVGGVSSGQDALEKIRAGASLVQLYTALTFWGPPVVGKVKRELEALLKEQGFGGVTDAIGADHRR
UniProt P00374: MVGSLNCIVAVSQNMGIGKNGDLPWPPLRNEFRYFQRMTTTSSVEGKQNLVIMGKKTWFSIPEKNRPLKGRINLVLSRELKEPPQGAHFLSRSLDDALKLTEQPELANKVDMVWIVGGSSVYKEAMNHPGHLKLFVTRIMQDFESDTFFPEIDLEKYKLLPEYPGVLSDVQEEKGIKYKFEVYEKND

Key:
Assay in all cases: log2 fold change, soluble protein after heating vs DMSO (PISA); higher = thermal stabilisation; K562 lysate, 10 uM; active = over 0.2 and 3.5 SD of the protein, either way, in both replicates (recomputed)
erlotinib = compound: C#Cc1cccc(Nc2ncnc3cc(OCCOC)c(OCCOC)cc23)c1 [erlotinib]
How it was run: (§1)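 K562 pellets were dounce-homogenised in PBS pH 7.4 with 1 mM MgCl2, and the crude extract at 1 mg/mL protein was treated with 10 μM compound for 30 min. Aliquots were heated for 3 min across 48°C-58°C, pooled, and brought to 0.5% NP-40 at 4°C; soluble protein was the supernatant after 21,000xg for 90 min. Soluble protein was quantified by TMTpro 16plex LC-MS/MS with channel sums equalised, and reported as log2 fold change in thermal stability against DMSO controls, with values from duplicates.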

[1] = compound: C/C(=N\NC(=O)C1=CC(=CC=C1)S(=O)(=O)N2CCOCC2)/C3=C(C=CC(=C3)Cl)O
How it was run: as §1

[2] = compound: C1=CC(=CC=C1C2=NC3=C(N2)C=C(C=C3)C(=O)N)OC4=CC=C(C=C4)Cl
How it was run: as §1

[3] = compound: C1=CC2=C(C=CC(=C2)/C=C\3/C(=O)NC(=NCC4=CC=CS4)S3)N=C1
How it was run: as §1

[4] = compound: C1=CC2=NC=CN=C2C=C1/C=C/3\C(=O)NC(=O)S3
How it was run: as §1

[5] = compound: C1=CC=C(C=C1)C2=NC(=C(N2)C3=CC=NC=C3)C4=CC(=C(C=C4)Cl)O
How it was run: as §1

[6] = compound: C1=CC=C2C(=C1)C3=NNC4=CC=CC(=C43)C2=O
How it was run: as §1

[7] = compound: C1CCN(C1)C(=O)NC2=CC=CC(=C2)NC3=NC=C(C(=N3)NCCC4=CN=CN4)Br
How it was run: as §1

[8] = compound: C1CN(CCC1(CC2=CC=C(C=C2)Cl)N)C3=NC=NC4=C3C=CN4
How it was run: as §1

IRAK-1-4 Inhibitor I = compound: C1COCCN1CCN2C3=CC=CC=C3N=C2NC(=O)C4=CC(=CC=C4)[N+](=O)[O-] [IRAK-1-4 Inhibitor I]
How it was run: as §1

ibrutinib = compound: C=CC(=O)N1CCC[C@@H](n2nc(-c3ccc(Oc4ccccc4)cc3)c3c(N)ncnc32)C1 [ibrutinib]
How it was run: as §1

[9] = compound: CC(=O)c1cnc2ccc(-c3cc(Cl)c(O)c(Cl)c3)nc2c1N[C@H]1CC[C@H](CN(C)C)CC1
How it was run: as §1

ralimetinib = compound: CC(C)(C)Cn1c(N)nc2ccc(-c3[nH]c(C(C)(C)C)nc3-c3ccc(F)cc3)nc21 [ralimetinib]
How it was run: as §1

[10] = compound: CC(C)(O)CC(=O)NCCn1ccc2ncnc(Nc3ccc(Oc4cccc(C(F)(F)F)c4)c(Cl)c3)c21
How it was run: as §1

[11] = compound: CC(C)C1=C2N=C(C=C(N2N=C1)NCC3=CC=CC=C3)NCCCCCCN
How it was run: as §1

[12] = compound: CC1=C(C(CC(=O)N1)C2=CC=C(C=C2)C(F)(F)F)C(=O)NC3=C(C=C4C(=C3)C=NN4)F
How it was run: as §1

[13] = compound: CC1=C(C2=C(C=C1)C(=O)C3=CC=CC=C3N2CCCN)C
How it was run: as §1

[14] = compound: CC1=C(C=C(C=C1)NC(=O)C2=CC(=CC=C2)C(C)(C)C#N)NC3=CC4=C(C=C3)N=CN(C4=O)C
How it was run: as §1

[15] = compound: CC1=C(C=C(C=C1)NC(=O)C2=CC(=CC=C2)N(C)C)NC(=O)C3=CC=C(C=C3)O
How it was run: as §1

[16] = compound: CC1=CC=C(C=C1)SC2=C3C=C(SC3=CN=C2)C(=O)N
How it was run: as §1

Measured: log2 fold change

DICER1 (UniProt Q9UPY3)
inactive: erlotinib 0.013 | [1] -0.088 | [2] -0.056 | [3] -0.023 | [4] -0.027 | [5] 0.03 | [6] -0.025 | [7] -0.064 | [8] -0.042 | IRAK-1-4 Inhibitor I -0.016 | ibrutinib -0.011 | [9] 0.037 | ralimetinib 0.019 | [10] -0.055 | [11] 0.012 | [12] 0.044 | [13] 0.003 | [14] 0.018 | [15] 0.013 | [16] 0

DNAJC13 (UniProt O75165)
inactive: erlotinib -0.012 | [1] 0.028 | [2] -0.009 | [3] -0.013 | [4] -0.031 | [5] -0.013 | [6] -0.031 | [7] -0.026 | [8] 0.036 | IRAK-1-4 Inhibitor I -0.01 | ibrutinib -0.012 | [9] -0.01 | ralimetinib -0.003 | [10] -0.034 | [11] -0.063 | [12] 0.01 | [13] -0.02 | [14] 0.013 | [15] -0.002 | [16] -0.001

DNAH9 (UniProt Q9NYC9)
inactive: erlotinib -0.028 | [1] 0.027 | [2] 0.045 | [3] -0.037 | [4] -0.027 | [5] -0.021 | [6] 0.027 | [7] 0.014 | [8] -0.004 | IRAK-1-4 Inhibitor I 0.025 | ibrutinib -0.047 | [9] -0.069 | ralimetinib 0 | [10] -0.007 | [11] -0.005 | [12] -0.043 | [13] 0.054 | [14] 0.035 | [15] -0.04 | [16] -0.061

DGCR8 (UniProt Q8WYQ5)
inactive: erlotinib 0.045 | [1] -0.026 | [2] 0.019 | [3] 0.023 | [4] -0.057 | [5] 0.002 | [6] -0.011 | [7] -0.019 | [8] 0 | IRAK-1-4 Inhibitor I -0.038 | ibrutinib 0.031 | [9] -0.049 | ralimetinib 0.014 | [10] -0.014 | [11] 0.015 | [12] 0.02 | [13] -0.018 | [14] -0.219 | [15] 0.071 | [16] -0.006

DMXL1 (UniProt Q9Y485)
inactive: erlotinib 0.006 | [1] 0.016 | [2] -0.015 | [3] -0.017 | [4] -0.024 | [5] -0.008 | [6] -0.026 | [7] -0.013 | [8] -0.001 | IRAK-1-4 Inhibitor I 0.016 | ibrutinib -0.02 | [9] -0.025 | ralimetinib 0.021 | [10] -0.012 | [11] 0.016 | [12] -0.001 | [13] -0.024 | [14] 0 | [15] 0.064 | [16] -0.026

DKC1 (UniProt O60832)
inactive: erlotinib -0.015 | [1] 0.013 | [2] 0.019 | [3] -0.006 | [4] -0.014 | [5] -0.014 | [6] 0.017 | [7] -0.001 | [8] 0.003 | IRAK-1-4 Inhibitor I 0.028 | ibrutinib 0.033 | [9] -0.018 | ralimetinib -0.013 | [10] -0.04 | [11] 0.015 | [12] -0.014 | [13] 0.005 | [14] -0.035 | [15] 0 | [16] 0.007

DOCK7 (UniProt Q96N67)
inactive: erlotinib 0.078 | [1] 0.009 | [2] -0.045 | [3] -0.041 | [4] -0.126 | [5] 0.014 | [6] -0.023 | [7] -0.003 | [8] 0.016 | IRAK-1-4 Inhibitor I 0.024 | ibrutinib -0.117 | [9] -0.009 | ralimetinib 0.077 | [10] -0.054 | [11] 0.021 | [12] 0.03 | [13] -0.078 | [14] 0.009 | [15] 0.065 | [16] -0.028

DNAJC2 (UniProt Q99543)
inactive: erlotinib -0.017 | [1] -0.028 | [2] -0.047 | [3] 0.021 | [4] -0.007 | [5] -0.009 | [6] 0.02 | [7] 0.013 | [8] -0.021 | IRAK-1-4 Inhibitor I -0.079 | ibrutinib -0.004 | [9] -0.001 | ralimetinib 0.027 | [10] 0.018 | [11] -0.008 | [12] 0.009 | [13] -0.005 | [14] -0.043 | [15] 0.015 | [16] 0.028

DHDDS isoform 2 (UniProt Q86SQ9)
inactive: erlotinib -0.038 | [1] -0.045 | [2] 0.033 | [3] -0.01 | [4] 0.024 | [5] 0.011 | [6] -0.094 | [7] 0.053 | [8] -0.051 | IRAK-1-4 Inhibitor I 0.014 | ibrutinib 0.059 | [9] 0.029 | ralimetinib -0.052 | [10] 0.046 | [11] -0.068 | [12] -0.082 | [13] -0.066 | [14] -0.036 | [15] 0.026 | [16] -0.035

DHRS2 (UniProt Q13268)
inactive: erlotinib -0.056 | [1] 0.099 | [2] 0.027 | [3] 0.04 | [4] -0.04 | [5] 0.009 | [6] 0.013 | [7] 0.002 | [8] 0.013 | IRAK-1-4 Inhibitor I 0.002 | ibrutinib 0.026 | [9] 0.025 | ralimetinib 0.043 | [10] -0.003 | [11] -0.017 | [12] -0.003 | [13] -0.003 | [14] -0.041 | [15] 0.006 | [16] 0.011

DHX16 (UniProt O60231)
inactive: erlotinib 0.004 | [1] -0.037 | [2] 0.013 | [3] -0.003 | [4] -0.051 | [5] -0.001 | [6] 0 | [7] -0.003 | [8] 0.035 | IRAK-1-4 Inhibitor I 0.006 | ibrutinib -0.015 | [9] 0.004 | ralimetinib 0.014 | [10] -0.006 | [11] 0.029 | [12] 0.009 | [13] -0.011 | [14] 0.008 | [15] 0.003 | [16] 0.042

DGUOK (UniProt Q16854)
inactive: erlotinib 0.011 | [1] 0.05 | [2] 0.031 | [3] 0.083 | [4] 0.016 | [5] 0.047 | [6] -0.039 | [7] 0.006 | [8] 0.047 | IRAK-1-4 Inhibitor I 0.055 | ibrutinib -0.05 | [9] -0.002 | ralimetinib -0.053 | [10] 0.023 | [11] -0.006 | [12] -0.024 | [13] 0.02 | [14] 0.003 | [15] -0.022 | [16] -0.028

DHODH (UniProt Q02127)
inactive: erlotinib -0.006 | [1] -0.014 | [2] 0.036 | [3] 0.003 | [4] 0.003 | [5] -0.009 | [6] -0.012 | [7] -0.008 | [8] 0.006 | IRAK-1-4 Inhibitor I -0.002 | ibrutinib 0.014 | [9] 0.011 | ralimetinib -0.023 | [10] -0.036 | [11] -0.043 | [12] 0.012 | [13] -0.028 | [14] 0.003 | [15] 0.007 | [16] -0.006

Taken from the results shown (two entries):
DHRS2 (UniProt Q13268)
inactive: erlotinib -0.056 | [1] 0.099 | [2] 0.027 | [3] 0.04 | [4] -0.04 | [5] 0.009 | [6] 0.013 | [7] 0.002 | [8] 0.013 | IRAK-1-4 Inhibitor I 0.002 | ibrutinib 0.026 | [9] 0.025 | ralimetinib 0.043 | [10] -0.003 | [11] -0.017 | [12] -0.003 | [13] -0.003 | [14] -0.041 | [15] 0.006 | [16] 0.011

DHX16 (UniProt O60231)
inactive: erlotinib 0.004 | [1] -0.037 | [2] 0.013 | [3] -0.003 | [4] -0.051 | [5] -0.001 | [6] 0 | [7] -0.003 | [8] 0.035 | IRAK-1-4 Inhibitor I 0.006 | ibrutinib -0.015 | [9] 0.004 | ralimetinib 0.014 | [10] -0.006 | [11] 0.029 | [12] 0.009 | [13] -0.011 | [14] 0.008 | [15] 0.003 | [16] 0.042

Continued.

DNAJA1 (UniProt P31689)
inactive: erlotinib -0.031 | [1] 0.01 | [2] -0.012 | [3] -0.001 | [4] -0.022 | [5] 0.005 | [6] 0.011 | [7] -0.019 | [8] -0.005 | IRAK-1-4 Inhibitor I 0.006 | ibrutinib -0.01 | [9] 0.017 | ralimetinib 0.005 | [10] -0.039 | [11] 0.006 | [12] -0.021 | [13] 0.015 | [14] 0.023 | [15] 0.019 | [16] 0.008

DHFR (UniProt P00374)
inactive: erlotinib 0.031 | [1] 0.046 | [2] -0.023 | [3] -0.019 | [4] 0.045 | [5] 0.025 | [6] -0.01 | [7] 0.034 | [8] 0.019 | IRAK-1-4 Inhibitor I -0.055 | ibrutinib -0.013 | [9] 0.155 | ralimetinib -0.058 | [10] 0.016 | [11] 0.024 | [12] -0.018 | [13] -0.013 | [14] -0.029 | [15] 0.025 | [16] 0.033
